The results in this text go back to patent publication US10947289B2 (priority 2013, dated 2021).

A short description of the data set: general procedure: Fmoc solid-phase peptide synthesis; 2-chlorotrityl chloride resin; HATU / N,N-diisopropylethylamine. Particulars: whole synthesis.

Under “scale 0.25 mmol”, “2-[[(2R)-2-[[2-[[(2R)-2-[[2-[[(2R)-2-acetamido-3-sulfanylpropanoyl]amino]acetyl]amino]-3-sulfanylpropanoyl]amino]acetyl]amino]-3-sulfanylpropanoyl]amino]acetic acid” came in with an isolated mass of 11 mg and an isolated yield of 16%.

For the setting “scale 0.200 mmol”, “2-[[(2S)-2-[[2-[[(2S)-2-[[2-[[(2S)-2-amino-3-tert-butoxy-propanoyl]amino]acetyl]amino]-3-tert-butoxy-propanoyl]amino]acetyl]amino]-3-tert-butoxy-propanoyl]amino]acetic Acid” displayed a crude mass of 120 mg and a crude yield of 97%.
